Data as given in PubChem BioAssay AID504808 (Drosophila RNAi Screening Center, 2011).

Test: 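Chromatin factors that keep E2F targets switched off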 (primary screen)
System: Drosophila S2 cells
Reagents: long dsRNA against Drosophila genes
Measurement: 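Firefly luciferase driven by E2F sites, normalised to Renilla luciferase on the same minimal promoter, measured by plate reader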
Scale: E2F firefly: higher = more E2F reporter activity; Renilla normaliser: higher = more normaliser reporter signal
Call rule: 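a knock-down counted as active when the firefly/Renilla E2F signal rose above 50%, a threshold chosen arbitrarily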
In all, the deposit lists about 21,000 reagents; shown is an unselected part of those with a known target gene and a result. In the full data, 18 (0.084%) were called active. 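Raw counts without plate normalisation, one of two replicates; the ratio scores behind the calls were not deposited.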 Reagents against one gene are numbered here. Names joined by + are all predicted targets of the reagent. Not given: the amount of reagent, the time to read-out.

Gene,dsRNA no.,"E2F firefly, rep 1","Renilla normaliser, rep 1",Outcome
Gcat,1,1.21e5,7694,inactive
COX1 (retired record),1,1.42e5,7050,inactive
CG10344,1,1.03e5,4293,inactive
CG7509,1,71797,3168,inactive
CG31122,1,64417,3992,inactive
CG31122,2,1.41e5,7524,inactive
CG32432,1,67158,4751,inactive
CG32432,2,85694,5906,inactive
CG32432,3,1.36e5,8043,inactive
CG16890,1,85676,3200,inactive
Ptth,1,1.68e5,6260,inactive
CG4576,1,1.31e5,6196,inactive
Fak,1,1.53e5,5280,inactive
Pop1,1,8262,688,inactive
Xrp1,1,59082,4415,inactive
Xrp1,2,1.35e5,7580,active
Ace,1,76360,2597,inactive
Ace,2,77035,3806,inactive
Alg3,1,76982,3622,inactive
kcc,1,85558,3645,inactive
kcc,2,1.09e5,4695,inactive
CG42534,1,89722,4594,inactive
CG42534,2,75560,4349,inactive
CG42534,3,1.14e5,5424,inactive
Obp47a,1,1.56e5,5087,inactive
CG14282,1,1.49e5,8003,inactive
CG9760,1,1.30e5,6542,inactive
CG42340,1,83168,2592,inactive
CG42340,2,97127,4471,inactive
CG42340,3,98067,5146,inactive
CG42597,1,1.19e5,4776,inactive
CG5114,1,74740,3730,inactive
Adk1,1,1.42e5,5990,inactive
CG11113,1,1.55e5,5520,inactive
dmt,1,1.48e5,12949,inactive
Uev1A,1,85360,3838,inactive
CG3198,1,1.10e5,4843,inactive
CG32075,1,82271,3803,inactive
Nepl17,1,1.12e5,6749,inactive
ACOX1,1,71238,3857,inactive
CG5478,1,1.22e5,6251,inactive
RpL23,1,63445,4423,inactive
CG3288,1,1.49e5,8250,inactive
CG14971,1,73433,3591,inactive
esn,1,1.45e5,5887,inactive
esn,2,1.41e5,5204,inactive
CG2082,1,64640,3164,inactive
Pgant4,1,1.67e5,4760,inactive
CG3704,1,53682,4079,inactive
CG3704,2,41738,3455,inactive
CG8993,1,1.02e5,4118,inactive
ewg,1,1.18e5,5956,inactive
Zpr1,1,8459,860,inactive
LIMK1,1,7993,692,inactive
Tbca,1,1994,928,inactive
Nepl10,1,93724,4317,inactive
baz,1,2.25e5,6165,inactive
nAChRalpha6,1,1.46e5,6162,inactive
nAChRalpha6,2,81556,4159,inactive
SdhBL,1,1.43e5,6791,inactive
PIG-H,1,1.66e5,7097,inactive
CG31205,1,78222,2721,inactive
CG7367,1,1.58e5,5316,inactive
ebd2,1,1.41e5,5253,inactive
CG18480,1,82885,3503,inactive
Rrp6,1,39934,3058,inactive
CG33673,1,1.32e5,5685,inactive
eff,1,1.68e5,6660,inactive
CG15784,1,1.12e5,8092,inactive
CG30350,1,1.54e5,4708,inactive
bmm,1,83314,4341,inactive
scpr-A + scpr-C,1,1.45e5,7441,inactive
CG9445,1,1.56e5,5136,inactive
amd,1,90904,3890,inactive
amd,2,97402,4009,inactive
l(2)10685,1,71883,3706,inactive
CG42818 + Ca-Ma2d,1,1.07e5,4146,inactive
Tsp68C,1,1.46e5,3183,inactive
CG8671,1,1.00e5,3943,inactive
CG8671,2,96070,4305,inactive
CG18764,1,1.40e5,6499,inactive
Rip11,1,1.53e5,5171,inactive
Gart,1,1.54e5,5005,inactive
CG31678,1,77700,3163,inactive
CG31678,2,95771,3858,inactive
CheB53a,1,1.40e5,5345,inactive
sif,1,1.41e5,4777,inactive
sif,2,80048,3196,inactive
Oseg5,1,94318,4214,inactive
TwdlB,1,1.09e5,5746,inactive
Or42b,1,1.03e5,4845,inactive
Mat1,1,1.40e5,5008,inactive
SMC1,1,1.09e5,4927,inactive
DNAlig4,1,1.21e5,6114,inactive
Kdm4A,1,3190,206,inactive
CG8248,1,2739,180,inactive
kek1,1,92323,4187,inactive
CG7379,1,67297,3020,inactive
Start1,1,82098,3324,inactive
CG3323,1,1.09e5,5195,inactive
CG15571,1,1.04e5,6126,inactive
SCCRO,1,1.57e5,7603,inactive
Brd7-9,1,1.05e5,4010,inactive
Regnase-1,1,71943,3425,inactive
CG15356,1,1.72e5,6623,inactive
Delta,1,1.55e5,6467,inactive
CG14071,1,1.44e5,4935,inactive

Targets listed so far whose target name starts with X or x (2):
Gene,dsRNA no.,"E2F firefly, rep 1","Renilla normaliser, rep 1",Outcome
Xrp1,1,59082,4415,inactive
Xrp1,2,1.35e5,7580,active
